According to paper PMC10297445:
Results are given in words; binding and its absence hold for the method and conditions named. In cells and extracts the contact can be indirect. A yes stands for co-enrichment or nearness to the bait. Other partners may have been found. Where a sequence is shown, tags or fusion partners need not be part of it. Values belong to the molecule of their own block, whether it stands above or below them.

Amino acid sequences for entries named in this document (tags omitted). A change or cut given only in a name is not applied to a line headed by its entry. Residues count along the entry.
UniProt Q8BRF7: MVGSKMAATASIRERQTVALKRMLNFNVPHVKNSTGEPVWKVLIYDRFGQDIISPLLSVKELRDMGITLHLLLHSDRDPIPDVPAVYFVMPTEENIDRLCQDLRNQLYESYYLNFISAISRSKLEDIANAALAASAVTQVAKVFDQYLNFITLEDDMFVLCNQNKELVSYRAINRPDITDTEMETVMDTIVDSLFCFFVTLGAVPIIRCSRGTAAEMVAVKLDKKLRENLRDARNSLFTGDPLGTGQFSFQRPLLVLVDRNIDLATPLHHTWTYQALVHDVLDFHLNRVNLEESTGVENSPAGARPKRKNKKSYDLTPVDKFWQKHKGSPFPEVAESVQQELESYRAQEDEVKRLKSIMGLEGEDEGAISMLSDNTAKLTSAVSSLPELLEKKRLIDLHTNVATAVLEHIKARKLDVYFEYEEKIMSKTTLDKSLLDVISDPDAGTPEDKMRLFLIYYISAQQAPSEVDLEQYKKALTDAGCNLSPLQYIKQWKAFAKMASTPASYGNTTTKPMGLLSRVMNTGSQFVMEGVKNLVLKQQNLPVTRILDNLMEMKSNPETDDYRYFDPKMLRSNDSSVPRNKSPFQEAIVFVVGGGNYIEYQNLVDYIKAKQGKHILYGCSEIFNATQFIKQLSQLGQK
UniProt D4AFX7: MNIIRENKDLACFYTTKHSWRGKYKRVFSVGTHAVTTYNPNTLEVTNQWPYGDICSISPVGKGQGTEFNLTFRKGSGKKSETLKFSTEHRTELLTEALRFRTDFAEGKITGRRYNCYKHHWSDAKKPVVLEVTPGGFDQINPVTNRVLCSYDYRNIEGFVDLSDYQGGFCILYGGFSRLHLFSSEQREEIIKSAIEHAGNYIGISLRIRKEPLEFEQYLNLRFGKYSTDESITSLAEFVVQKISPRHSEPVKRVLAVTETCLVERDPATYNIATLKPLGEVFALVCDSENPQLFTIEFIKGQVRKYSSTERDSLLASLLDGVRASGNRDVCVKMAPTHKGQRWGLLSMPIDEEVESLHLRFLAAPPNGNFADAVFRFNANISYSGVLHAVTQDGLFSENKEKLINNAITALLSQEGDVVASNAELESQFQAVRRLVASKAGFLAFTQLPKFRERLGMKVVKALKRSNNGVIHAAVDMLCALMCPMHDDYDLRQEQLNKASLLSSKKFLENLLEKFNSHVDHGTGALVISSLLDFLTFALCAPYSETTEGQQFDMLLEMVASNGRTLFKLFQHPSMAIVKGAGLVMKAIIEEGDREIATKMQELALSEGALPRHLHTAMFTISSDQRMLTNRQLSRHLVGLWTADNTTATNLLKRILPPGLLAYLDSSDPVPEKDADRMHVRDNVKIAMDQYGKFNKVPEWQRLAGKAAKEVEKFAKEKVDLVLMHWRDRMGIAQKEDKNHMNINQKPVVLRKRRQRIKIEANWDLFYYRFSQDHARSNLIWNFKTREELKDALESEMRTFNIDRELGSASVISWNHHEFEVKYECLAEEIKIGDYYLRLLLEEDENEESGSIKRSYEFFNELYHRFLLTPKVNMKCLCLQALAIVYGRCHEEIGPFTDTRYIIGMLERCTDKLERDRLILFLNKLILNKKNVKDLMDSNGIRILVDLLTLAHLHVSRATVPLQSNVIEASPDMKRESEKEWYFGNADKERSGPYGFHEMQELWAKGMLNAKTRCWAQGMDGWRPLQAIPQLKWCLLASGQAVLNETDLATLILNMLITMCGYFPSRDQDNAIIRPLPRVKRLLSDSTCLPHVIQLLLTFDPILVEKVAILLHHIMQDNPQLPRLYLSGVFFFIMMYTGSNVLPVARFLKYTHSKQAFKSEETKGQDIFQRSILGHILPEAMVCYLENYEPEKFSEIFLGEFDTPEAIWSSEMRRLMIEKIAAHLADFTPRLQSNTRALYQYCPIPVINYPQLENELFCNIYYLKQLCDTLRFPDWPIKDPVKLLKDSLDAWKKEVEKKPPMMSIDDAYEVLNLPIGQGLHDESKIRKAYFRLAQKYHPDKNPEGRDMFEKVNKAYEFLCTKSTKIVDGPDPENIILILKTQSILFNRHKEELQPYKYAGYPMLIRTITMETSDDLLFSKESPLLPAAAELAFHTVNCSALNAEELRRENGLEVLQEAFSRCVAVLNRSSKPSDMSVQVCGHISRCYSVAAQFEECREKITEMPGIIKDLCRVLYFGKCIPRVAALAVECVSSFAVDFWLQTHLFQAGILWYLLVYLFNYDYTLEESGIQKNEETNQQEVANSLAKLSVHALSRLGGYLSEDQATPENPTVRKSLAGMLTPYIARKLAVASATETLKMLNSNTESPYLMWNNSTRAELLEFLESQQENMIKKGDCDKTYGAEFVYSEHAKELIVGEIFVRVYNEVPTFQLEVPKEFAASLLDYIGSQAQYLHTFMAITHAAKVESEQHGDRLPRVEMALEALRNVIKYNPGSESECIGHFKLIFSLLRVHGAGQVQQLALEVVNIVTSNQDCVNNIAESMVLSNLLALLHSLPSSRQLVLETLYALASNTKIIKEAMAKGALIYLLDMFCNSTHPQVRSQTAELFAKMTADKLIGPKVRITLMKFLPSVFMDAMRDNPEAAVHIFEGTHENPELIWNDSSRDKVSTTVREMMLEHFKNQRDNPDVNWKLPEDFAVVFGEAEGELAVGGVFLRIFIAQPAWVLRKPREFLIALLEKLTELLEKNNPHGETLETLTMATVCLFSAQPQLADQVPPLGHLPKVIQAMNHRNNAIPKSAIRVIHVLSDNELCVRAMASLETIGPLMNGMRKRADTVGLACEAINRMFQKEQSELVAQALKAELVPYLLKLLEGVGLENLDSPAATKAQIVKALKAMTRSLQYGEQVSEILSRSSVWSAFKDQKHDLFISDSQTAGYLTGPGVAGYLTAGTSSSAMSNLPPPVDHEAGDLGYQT
UniProt P35293: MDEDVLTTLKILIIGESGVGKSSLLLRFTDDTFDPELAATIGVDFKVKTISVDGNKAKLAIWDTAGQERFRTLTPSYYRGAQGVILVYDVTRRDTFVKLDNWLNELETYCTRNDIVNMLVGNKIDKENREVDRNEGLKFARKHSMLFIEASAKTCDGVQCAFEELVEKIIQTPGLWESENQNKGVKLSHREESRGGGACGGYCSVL
UniProt P18242: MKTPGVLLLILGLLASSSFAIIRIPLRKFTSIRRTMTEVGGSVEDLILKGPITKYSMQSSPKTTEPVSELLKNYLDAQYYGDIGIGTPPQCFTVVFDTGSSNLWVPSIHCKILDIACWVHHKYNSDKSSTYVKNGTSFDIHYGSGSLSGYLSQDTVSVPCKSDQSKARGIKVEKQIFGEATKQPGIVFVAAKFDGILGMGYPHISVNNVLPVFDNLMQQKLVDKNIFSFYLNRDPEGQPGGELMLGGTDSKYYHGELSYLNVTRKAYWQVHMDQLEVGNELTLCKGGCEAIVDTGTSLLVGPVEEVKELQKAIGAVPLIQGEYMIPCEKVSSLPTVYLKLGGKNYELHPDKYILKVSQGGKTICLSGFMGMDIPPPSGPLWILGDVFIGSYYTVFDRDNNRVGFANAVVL
UniProt Q9WUM3: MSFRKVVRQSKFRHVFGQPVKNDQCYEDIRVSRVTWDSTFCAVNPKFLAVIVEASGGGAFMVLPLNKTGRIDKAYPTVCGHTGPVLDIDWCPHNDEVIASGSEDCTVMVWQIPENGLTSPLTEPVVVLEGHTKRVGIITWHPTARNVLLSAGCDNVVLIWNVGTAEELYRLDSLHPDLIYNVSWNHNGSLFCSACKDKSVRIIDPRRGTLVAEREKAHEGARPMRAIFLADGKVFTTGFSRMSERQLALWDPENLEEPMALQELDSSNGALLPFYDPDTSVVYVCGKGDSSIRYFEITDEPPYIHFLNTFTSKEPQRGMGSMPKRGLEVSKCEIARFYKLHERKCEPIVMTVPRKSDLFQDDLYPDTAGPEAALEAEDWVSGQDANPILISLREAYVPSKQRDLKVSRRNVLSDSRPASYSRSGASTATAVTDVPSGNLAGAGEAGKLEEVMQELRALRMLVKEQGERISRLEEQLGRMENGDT
UniProt P48036: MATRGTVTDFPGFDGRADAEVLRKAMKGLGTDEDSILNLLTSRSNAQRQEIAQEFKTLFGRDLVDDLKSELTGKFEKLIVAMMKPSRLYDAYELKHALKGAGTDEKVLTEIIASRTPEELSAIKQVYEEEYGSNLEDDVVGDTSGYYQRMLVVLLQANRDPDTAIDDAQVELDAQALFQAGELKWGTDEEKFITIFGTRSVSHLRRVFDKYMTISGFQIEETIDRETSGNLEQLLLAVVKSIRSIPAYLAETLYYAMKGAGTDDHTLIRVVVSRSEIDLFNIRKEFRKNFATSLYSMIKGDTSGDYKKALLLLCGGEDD
UniProt O35604, residues 23-1277: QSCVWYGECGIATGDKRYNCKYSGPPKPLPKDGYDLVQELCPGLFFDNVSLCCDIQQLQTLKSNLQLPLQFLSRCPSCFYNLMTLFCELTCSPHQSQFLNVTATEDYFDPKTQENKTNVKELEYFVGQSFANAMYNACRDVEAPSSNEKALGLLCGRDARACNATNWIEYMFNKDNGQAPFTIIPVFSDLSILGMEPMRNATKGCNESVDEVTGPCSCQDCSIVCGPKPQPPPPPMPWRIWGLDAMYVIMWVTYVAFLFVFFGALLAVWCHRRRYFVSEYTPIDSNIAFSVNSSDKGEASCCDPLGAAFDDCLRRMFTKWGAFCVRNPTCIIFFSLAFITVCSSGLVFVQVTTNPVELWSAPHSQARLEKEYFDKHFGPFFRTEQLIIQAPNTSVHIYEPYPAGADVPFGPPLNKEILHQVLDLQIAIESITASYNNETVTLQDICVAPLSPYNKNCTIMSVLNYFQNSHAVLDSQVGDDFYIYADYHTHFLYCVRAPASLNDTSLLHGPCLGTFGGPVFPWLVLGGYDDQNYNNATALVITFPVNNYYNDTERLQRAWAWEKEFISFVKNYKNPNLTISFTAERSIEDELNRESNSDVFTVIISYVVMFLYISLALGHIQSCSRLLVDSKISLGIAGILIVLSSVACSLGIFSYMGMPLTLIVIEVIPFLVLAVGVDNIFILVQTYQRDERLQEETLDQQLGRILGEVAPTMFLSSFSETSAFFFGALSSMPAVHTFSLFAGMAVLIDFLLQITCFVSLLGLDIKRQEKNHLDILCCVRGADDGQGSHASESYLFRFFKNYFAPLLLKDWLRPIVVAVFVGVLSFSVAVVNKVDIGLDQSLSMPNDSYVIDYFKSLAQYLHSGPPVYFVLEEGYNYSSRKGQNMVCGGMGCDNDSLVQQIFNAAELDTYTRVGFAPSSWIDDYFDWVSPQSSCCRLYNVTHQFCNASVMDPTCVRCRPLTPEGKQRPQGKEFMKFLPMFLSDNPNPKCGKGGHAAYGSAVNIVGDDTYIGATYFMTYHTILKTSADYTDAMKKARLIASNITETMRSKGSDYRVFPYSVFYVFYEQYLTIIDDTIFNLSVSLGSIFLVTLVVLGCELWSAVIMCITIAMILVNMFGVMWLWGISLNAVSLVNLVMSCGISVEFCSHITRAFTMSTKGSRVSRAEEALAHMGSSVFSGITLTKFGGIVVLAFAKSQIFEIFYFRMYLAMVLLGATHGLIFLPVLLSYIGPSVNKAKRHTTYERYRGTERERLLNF
UniProt Q00PI9: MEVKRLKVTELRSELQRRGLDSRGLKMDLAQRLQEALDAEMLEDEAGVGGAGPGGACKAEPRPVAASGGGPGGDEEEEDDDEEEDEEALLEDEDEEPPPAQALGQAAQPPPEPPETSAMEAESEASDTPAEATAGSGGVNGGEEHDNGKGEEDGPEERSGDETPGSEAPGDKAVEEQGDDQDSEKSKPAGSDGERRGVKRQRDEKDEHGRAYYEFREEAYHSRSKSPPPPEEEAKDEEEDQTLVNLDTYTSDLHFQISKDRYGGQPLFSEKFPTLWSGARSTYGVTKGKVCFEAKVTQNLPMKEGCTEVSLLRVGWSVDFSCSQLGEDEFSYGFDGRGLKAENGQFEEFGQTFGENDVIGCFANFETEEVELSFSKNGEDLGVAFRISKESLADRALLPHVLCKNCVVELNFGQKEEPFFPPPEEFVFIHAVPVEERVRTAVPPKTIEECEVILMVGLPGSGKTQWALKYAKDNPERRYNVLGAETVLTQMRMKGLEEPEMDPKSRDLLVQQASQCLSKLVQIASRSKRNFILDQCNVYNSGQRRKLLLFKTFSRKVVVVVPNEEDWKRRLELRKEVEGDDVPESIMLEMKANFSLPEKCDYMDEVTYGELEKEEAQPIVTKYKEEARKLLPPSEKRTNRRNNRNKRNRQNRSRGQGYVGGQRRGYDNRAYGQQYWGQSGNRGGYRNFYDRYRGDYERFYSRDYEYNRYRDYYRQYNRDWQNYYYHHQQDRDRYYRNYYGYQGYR

Tests used:
[1] = target: T1, GST-A2AR^284–410 (C-terminus of mouse adenosine A2A receptor fused to GST) (mouse) (UniProt Q60613); assay: affinity purification with mass spectrometry; pull-down: 20 µg MagneGST-bound GST-A2AR^284–410 (GST alone in parallel) incubated with 500 µg mouse peritoneal macrophage (IPMФ) lysate overnight at 4 °C; SDS-PAGE, trypsin digest, MALDI-TOF mass spectrometry; only the target purified
T1 sequence: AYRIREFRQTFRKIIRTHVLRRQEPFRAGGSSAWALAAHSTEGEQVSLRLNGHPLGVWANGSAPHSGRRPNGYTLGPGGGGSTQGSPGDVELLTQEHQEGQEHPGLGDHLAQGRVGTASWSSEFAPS

[2] = target: T2, cMyc-A2AR^284–410 (C-terminus of mouse adenosine A2A receptor tagged with cMyc epitope) (mouse) (UniProt Q60613); assay: affinity purification with mass spectrometry; co-IP of cMyc-A2AR^284–410 with 1 µg anti-cMyc antibody (isotype control IgG1 in parallel) from 500 µg protein extract of transfected RAW 264.7 cells in RIPA buffer diluted with PBS, overnight at 4 °C; SDS-PAGE, trypsin digest, MALDI-TOF mass spectrometry
T2 sequence: T1 sequence

Molecule: Sec1 family domain-containing protein 1 (from UniProt Q8BRF7 1-639)
binding [1]: binds
binding [2]: binds

Molecule: Alpha glucosidase 2 alpha neutral subunit (from UniProt Q8BHN3-2) (enzyme)
binding [1]: binds
binding [2]: binds

Molecule: Receptor mediated endocytosis-8 (from UniProt D4AFX7 1-2248)
binding [1]: binds
binding [2]: binds

Molecule: Ras-related protein Rab 18 (from UniProt P35293 1-206)
binding [1]: binds
binding [2]: binds

Molecule: Chaperone protein DnaJ (from UniProt P63037)
binding [1]: binds
binding [2]: binds

Molecule: Cathepsin D (from UniProt P18242) (enzyme)
binding [1]: binds
binding [2]: binds

Molecule: Coronin-1B (from UniProt Q9WUM3 1-484)
binding [1]: binds
binding [2]: binds

Molecule: Serine/threonine-protein phosphatase (mouse (endogenous in RAW 264.7 and IPMФ)) (enzyme)
binding [1]: binds
binding [2]: binds

B1: Caprin-1 (protein, UniProt Q60865 1-707)
chain: MPSATSHSGSGSKSSGPPPPSGSSGSEAAAGAAAPASQHPATGTGAVQTEAMKQILGVIDKKLRNLEKKKGKLDDYQERMNKGERLNQDQLDAVSKYQEVTNNLEFAKELQRSFMALSQDIQKTIKKTARREQLMREEAEQKRLKTVLELQYVLDKLGDDDVRTDLKQGLSGVPILSEEELSLLDEFYKLVDPERDMSLRLNEQYEHASIHLWDLLEGKEKPVCGTTYKALKEIVERVFQSNYFDSTHNHQNGLCEEEEAASAPTVEDQVAEAEPEPAEEYTEQSEVESTEYVNRQFMAETQFSSGEKEQVDEWTVETVEVVNSLQQQPQAASPSVPEPHSLTPVAQSDPLVRRQRVQDLMAQMQGPYNFIQDSMLDFENQTLDPAIVSAQPMNPTQNMDMPQLVCPQVHSESRLAQSNQVPVQPEATQVPLVSSTSEGYTASQPLYQPSHATEQRPQKEPMDQIQATISLNTDQTTASSSLPAASQPQVFQAGTSKPLHSSGINVNAAPFQSMQTVFNMNAPVPPANEPETLKQQSQYQATYNQSFSSQPHQVEQTELQQDQLQTVVGTYHGSQDQPHQVPGNHQQPPQQNTGFPRSSQPYYNSRGVSRGGSRGARGLMNGYRGPANGFRGGYDGYRPSFSNTPNSGYSQSQFTAPRDYSGYQRDGYQQNFKRGSGQSGPRGAPRGRGGPPRPNRGMPQMNTQQVN
binding [1]: binds
binding [2]: binds

B2: Coatomer subunit gamma-2 (protein, UniProt Q9QXK3 1-871)
chain: MIKKFDKKDEESGSGSNPFQHLEKSAVLQEARIFNETPINPRRCLHILTKILYLLNQGEHFGTMEATEAFFAMTRLFQSNDQTLRRMCYLTIKEMATISEDVIIVTSSLTKDMTGKEDVYRGPAIRALCRITDGTMLQAVERYMKQAIVDKVSSVASSALVSSLHMMKISYDVVKRWINEAQEAASSDNIMVQYHALGVLYHLRKNDRLAVSKMLNKFTKSGLKSQFAYCMLIRIASRLLKESEDGHESPLFDFIESCLRNKHEMVIYEAASAIIHLPNCTARELAPAVSVLQLFCSSPKPALRYAAVRTLNKVAMKHPSAVTACNLDLENLITDSNRSIATLAITTLLKTGSESSVDRLMKQISSFVSEISDEFKVVVVQAISALCHKYPRKHSVMMTFLSNMLRDDGGFEYKKAIVDCIISIVEENPESKEAGLAHLCEFIEDCEHTVLATKILHLLGKEGPRTPVPSKYIRFIFNRVVLENEAVRAAAVSALAKFGAQNESLLPSILVLLQRCMMDTDDEVRDRATFYLNVLQQRQMALNATYIFNGLTVSIPGMEKALHQYTLEPSEKPFDMKSIPLAMAPVFEQKSEITLVTPKPEKLAPSRQDIFQEQLAAIPEFMNLGPLFKSSEPVQLTEAETEYFVRCVKHMFTDHIVFQFDCTNTLNDQLLEKVTVQMEPSDSYEVLCCIPAPSLPYNQPGICYTLVRLPDEDPTAVAGTFSCTMKFTVRDCDPNTGVPDEDGYDDEYVLEDLEVTVSDHIQKILKPNFAAAWEEVGDAFEKEETFALSSTKTLEEAVNNIITFLGMQPCERSDKVPENKNSHSLYLAGVYRGGYDLLVRSRLALADGVTMQVTVRSKERTPVDVILASVG
binding [1]: binds
binding [2]: binds

B3: Myeloid cell nuclear differentiation antigen-like protein (protein, UniProt D0QMC3 1-538)
chain: MAEYKKIVLLKGLESMEDYQFRTVKSLLRKELKLTKKLQEDYDRIQLADWMEDKFPKYAGLDKLIKVCEHIKDLKDLAKKLKTEKAKVQKKKQGKCKTAVKKKGQDELSSSESLFINKESYKSVPSSKKKGKAIAKTEGEKKNKLTQDQDHLPETSGTDIKTEEDCLQNSPKPPPTSPSSSSNKKKRKEITKTEGGKKKKLTQEQAQLPEPLGTDIKKDEDCLQTPPKPPPTPPSSSLNKKRKSRREEETGVKKSKAAKEPDQPPCCEEPTARCQSPILHSSSSASSNIPSATNQKPQPQNQNIPRGAVLHSEPLTVMVLTATDPFEYESPEHEVKNMFHATVATVSQYFHVKVFNINLKEKFTKKNFIIISNYFESKGILEINETSSVLKADPDQMIEVPNNIIRNANASPKICDIQKGTSGAVFYGVFTLHKKKVKTQNTSYEIKDGSGSIEVEGSGQWHNINCKEGDKLHLFCFHLKRERGQPKLVCGDHSFVKIKVTKAGKKKEASTVLSSTKNEEENNYPKDGIKVEMPDYHV
binding [1]: binds
binding [2]: binds

Further lines, results first:

binding [1]: binds
binding [2]: binds
Molecule: Annexin A5 (from UniProt P48036 1-319)

binding [1]: binds
binding [2]: binds
Molecule: Niemann–Pick C1 protein (mouse, endogenous) (from UniProt O35604 23-1277)

binding [1]: binds
binding [2]: binds
Molecule: Heterogeneous nuclear ribonucleoprotein U-like protein 2 (from UniProt Q00PI9 1-745)

binding [1]: binds
binding [2]: binds
B4: RUN and FYVE domain containing protein (protein, UniProt Q8BIJ7 1-712)
chain: MAARGECRRAGQDSEPEPEREPESEPGPEPEPQAGLESGEAFEIVDRSQLPSPGELRSASRPRVADSWSAPILTLARRATGNLSASCGSALRAAAGLGDGGGGGERAASKGQMMEERANLMHMMKLSIKVLLQSALSLGRSLDADYAPLQQFFVVMEHCLKHGLKVKKSFIGQNKSFFGPLELVEKLCPEASDIATSVRNLPELKTAVGRGRAWLYLALMQKKLADYLKVLIDNKQLLSEFYEPEALMMEEEGMVIVGLLVGLNVLDANLCLKGEDLDSQVGVIDFSLCLKDAQDLDSGREHERITDVLDQKNYVEELNRHLSCTVGDLQTKIDGLEKTNSKLQEELSAATDRICSLQKEQQQLREQNEVIRERSEKSVEITKQDTKVELETYKQTRQGLDEMYSDVWKQLKEEKKVRLELEKELELQIGMKTEMEIAMKLLEKDTHEKQDTLVALRQQLEEVKAINLQMFHKVQSAESSLQQKNEAIASFEGKTTQVMSSMKQMEERLQQAERARQAAEERSHKLQQELSGRGSALQLQLSQLRDQCSGLEKELKSEKEQRQALQRELQREKDTSCLLQTELQQVEGLKKELRELQDEKAELRKVCEEQEQALQEMGLHLSQSKLKMEDIKEVNKALKGHTWLKDDEATHCKQCEKDFSISRRKHHCRNCGHIFCNTCSSNELALPSYPKPVRVCDSCHTLLLQRCSSTAS

binding [1]: binds
binding [2]: binds
B5: DNA topoisomerase 1 (enzyme, UniProt Q04750 1-767)
chain: MSGDHLHNDSQIEADFRLNDSHKHKDKHKDREHRHKEHKKDKDKDREKSKHSNSEHKDSEKKHKEKEKTKHKDGSSEKHKDKHKDRDKERRKEEKIRAAGDAKIKKEKENGFSSPPRIKDEPEDDGYFAPPKEDIKPLKRLRDEDDADYKPKKIKTEDIKKEKKRKSEEEEDGKLKKPKNKDKDKKVAEPDNKKKKPKKEEEQKWKWWEEERYPEGIKWKFLEHKGPVFAPPYEPLPESVKFYYDGKVMKLSPKAEEVATFFAKMLDHEYTTKEIFRKNFFKDWRKEMTNDEKNTITNLSKCDFTQMSQYFKAQSEARKQMSKEEKLKIKEENEKLLKEYGFCVMDNHRERIANFKIEPPGLFRGRGNHPKMGMLKRRIMPEDIIINCSKDAKVPSPPPGHKWKEVRHDNKVTWLVSWTENIQGSIKYIMLNPSSRIKGEKDWQKYETARRLKKCVDKIRNQYREDWKSKEMKVRQRAVALYFIDKLALRAGNEKEEGETADTVGCCSLRVEHINLHPELDGQEYVVEFDFPGKDSIRYYNKVPVEKRVFKNLQLFMENKQPEDDLFDRLNTGILNKHLQDLMEGLTAKVFRTYNASITLQQQLKELTAPDENVPAKILSYNRANRAVAILCNHQRAPPKTFEKSMMNLQSKIDAKKDQLADARRDLKSAKADAKVMKDAKTKKVVESKKKAVQRLEEQLMKLEVQATDREENKQIALGTSKLNYLDPRITVAWCKKWGVPIEKIYNKTQREKFAWAIDMTDEDYEF

binding [1]: binds
binding [2]: binds
B6: Monoacylglycerol lipase ABHD12n (enzyme, UniProt Q99LR1 1-398)
chain: MRKRTEPVTLEHERCAASGSSSSGSAAAALDADCSLKQNLRLAGKGTAEPHSASDAGMKRALGRRKSLWFRLRKILLCVLGFYIAIPFLVKLCPGIQAKLIFLNFVRVPYFIDLKKPQDQGLNHTCNYYLQPEDDVTIGVWHTIPSVWWKNAQGKDQMWYEDALASNHAIILYLHGNAGTRGGDHRVELYKVLSSLGYHVVTFDYRGWGDSVGTPSERGMTYDALHVFDWIKARSGDNPVYIWGHSLGTGVATNLVRRLCERETPPDALILESPFTNIREEAKSHPFSVIYRYFPGFDWFFLDPITSSGIKFANDENMKHISCPLLILHAEDDPVVPFHLGRKLYNIAAPSRSFRDFKVQFIPFHSDLGYRHKYIYKSPELPRILREFLGKSEPERQH
